The source of these data is paper PMC3973678.

For data set [1], the target named is PU/ER(T) fusion (PU.1 fused to modified estrogen receptor ligand binding domain) G525R (UniProt P17433). In words: EMSA, supershift. To be noted: 4-hydroxytamoxifen 100 nM; 5 ug nuclear extract, 6% native acrylamide gel, 0.5X TBE, chemiluminescent detection; binding buffer, pH and temperature not given; protein in an extract; protein details: ER LBD fusion; label: 5' biotin. Background: In EMSA bound probe runs differently from free probe, usually more slowly.

For data set [2] the target is unchanged. In words: EMSA. To be noted: 4-hydroxytamoxifen, binding completely abolished by CpG methylation; 5-methylcytosine at CpG dinucleotides (in vitro M.SssI + SAM); 5 ug nuclear extract, 6% native acrylamide gel, 0.5X TBE, chemiluminescent detection; binding buffer, pH and temperature not given; protein in an extract; protein details: ER LBD fusion; label: 5' biotin.

Data set [3] has the same target. In words: competition with a labelled probe. To be noted: 5, 15, 25 and 100 pmol unlabelled oligo against labelled N1, extract source not stated for panel D; 5 ug nuclear extract, 6% native acrylamide gel, 0.5X TBE, chemiluminescent detection; binding buffer, pH and temperature not given; protein in an extract; protein details: ER LBD fusion.

For at least one entry, the source does not settle the construct or the ends of the probe. At least one result comes from cells or an extract, where the contact may be indirect. For part of these data: No signal at the amounts used counts as a negative. For part of these data: At least one verdict rests on a figure or table, not on a statement of the authors.

Turning to “CGCGCAGTGGGGGCTGCGGGAAGGCGGGGAGAAGAAAGGCAGGGGGCGGGGCCTGGCGGCGGAGCCCCGCGCGCCG (double strand) [KLF4 promoter 76 bp oligo (-118/-113 PU.1 element)]”, the binding result in data set [1] is “binds”. On to “CGCGCAGTGGGGGCTGCGGGAAGGCGGGGAGAAGAAAGGCAGGGGGCGGGGCCTGGCGGCGGAGCCCCGCGCGCCG (double strand) [KLF4 promoter 76 bp oligo, M.SssI methylated]”, for which, in data set [2], the binding result is given as “no binding”. For “CGCGCAGTGGGGGCTGCGGGAAGGCGGGGAGAAGAAAGGCAGGGGGCGGGGCCTGGCGGCGGAGCCCCGCGCGCCG (double strand) [unlabelled KLF4 promoter oligo (cold competitor)]”, in data set [3], the binding result is on record as “binds”.
